Assay results: publication PMC13163009, “Pyrimethamine Restores KEAP1-Mediated Degradation of Select NRF2 Mutants in Esophageal Squamous Cell Carcinoma” (Cancers, 2026)
Results are given in words; binding and its absence hold for the method and conditions named. Some results given as binding are weak or reduced against the parent protein; the word gives no strength.

By UniProt entry, the sequences of proteins in these tests, tags left out. Residues count along the entry.
UniProt Q14145, residues 321-611: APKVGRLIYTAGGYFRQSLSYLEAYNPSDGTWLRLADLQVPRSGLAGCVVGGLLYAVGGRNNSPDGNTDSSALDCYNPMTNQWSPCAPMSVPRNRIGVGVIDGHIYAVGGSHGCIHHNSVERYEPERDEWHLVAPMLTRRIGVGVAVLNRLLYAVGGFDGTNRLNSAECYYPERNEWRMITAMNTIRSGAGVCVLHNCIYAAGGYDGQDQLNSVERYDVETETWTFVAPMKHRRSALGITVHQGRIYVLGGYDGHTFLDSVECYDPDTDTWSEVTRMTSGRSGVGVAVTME

Target: Kelch fragment (Ala321-Glu611 of human KEAP1 protein) (human) (UniProt Q14145)
Assay: SPR; Biacore S200; biotinylated Kelch immobilised on a streptavidin chip; DLG peptides as analytes, 2-fold dilutions from 200 uM to 0.39 uM; 30 uL/min, 90 s association, 180 s dissociation; analysis at 15 °C; also run with PYR mixed into the analyte with the DLG peptides; both purified

MDLIDILCRQDIDLGVSREVFDFS [DLG^W24C peptide (NRF2 residues 17-40 with W24C)]
binding: binds weakly
